This data set has as its system T1, His10-SgcR3 (Streptomyces globisporus C-1027).
T1 sequence (looked up): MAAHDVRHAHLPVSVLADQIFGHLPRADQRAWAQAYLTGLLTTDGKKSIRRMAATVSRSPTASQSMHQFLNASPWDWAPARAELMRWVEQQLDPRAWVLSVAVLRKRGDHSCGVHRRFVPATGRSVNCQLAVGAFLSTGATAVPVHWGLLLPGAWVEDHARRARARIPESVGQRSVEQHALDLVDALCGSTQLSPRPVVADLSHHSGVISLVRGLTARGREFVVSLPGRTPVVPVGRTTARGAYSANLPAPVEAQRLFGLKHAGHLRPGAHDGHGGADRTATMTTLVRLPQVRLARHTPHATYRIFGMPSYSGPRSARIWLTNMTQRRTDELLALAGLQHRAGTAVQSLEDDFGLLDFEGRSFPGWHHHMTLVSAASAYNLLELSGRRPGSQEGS
Briefly: EMSA. The note with it: 20 fmol probe, 100 mM Tris/HCl pH 7.5, 500 mM KCl, 4 C, 20 min, 5% native PAGE in 0.5x TBE at 4 C, recombinant protein, residues 1-395, protein details: N-terminal His10 (pET-16b), label: 3'-end Biotin-11-ddUTP, probe letters rebuilt from the primers and the genome. A general note: In EMSA bound probe runs differently from free probe, usually more slowly.

No signal at the amounts used counts as a negative. Where a protein sequence is shown, tags need not be part of it.

The results in this text go back to article PMC2657911.

Regarding “ACGATCGTGTCCGCGTAGGCCTCCAGGGTCATGGTCCGGATATCGCCGGCCGGCGCCCCTCGCTCATTGTCGTCGCGCAACTCGCTCTCCATTCTCGCAGTCCGGAGTGGGATGCCTTGTGGCGAGGAGAAAGCTAGGTTCGTTCGACCGGTTCAAGCAACTAGCCAAAGTCGAGGCGACCTTGAAACCGACTCCACGGAGTTGGCGCGAAGCGGCGGATGGATTACACGCGCGGGCGAGCGGCTCACTAGTCTGGCCGCACGGATGTCTTCATCACCTGCACGTGGAAAAGCTTCTGCACGGGCACCGCATGTGGAAGTGAGCCCTGGTCTCATGTCTTGGGGGAAACGTGAAAAGTGACTCTGCCCAACGCGCCGTGGAGCGATCACGCCGTGTCGTACGGATCGATGAACTCATTCCCGCCGATTCCCCGCGCCTGAACGGAATCGATCGTT (double strand) [sgcR1R2 promoter region (455 bp)]”, where the note is “0.5-27 pmol protein, shift abolished by 200-fold unlabeled probe”, the binding result is “binds”. “GAGCTGCGCGGAAGGAAGGCGTTGGCGCTGGAGTCCTGGACGTCGGCGAGCTTCCCCGCCAGCGGGCCCAGCGCCATCGCGATGATGAGCCAGGCGGCCAGGACCAGCCACTTTCCACGTCTGTCACCGGGCACACCACTGGTGCGCTTGAACCAGGCTTGCAAGGGGGGCTCCTTCGGGCACGTCTCGGATTCCGCGATGGCCGGGAGTGTTGGAGAGGGCCGCACTGCACGGCCGTTCCGACGCGGCCGGCGGGGGCCTCCATCGTTCCCAACTCCACCTGGAAGACGTCAACTTCCAGATTGCGCAGTTGGTCGAACAAGGTTTGACCGAACGCTTCGGCGCCGTACGCGGAGCTCCGCACTCAAGGAGAAGCGTCCTGTGCGCCGCCGCCCCAAGATGGGCGTCGTGGCGAATGACGTGACTGTGACCGAGCCGGACCGGGGGCCTTCGCCGGCCTCCGGATCTGCGGTGTTGCACC (double strand) [sgcC1 upstream region (481 bp)]”: under “13.5 pmol protein”, the binding result was “no binding”.

For “GAGGGGTTTTGAGGGGTGAAAAAGGGACTGAAGGGACTCAACTTCCCCATTATGAGCTGAGTAGAAGAAAGCAGTATGACGATATGCGCGCCTACATACGCGCGCGTACATAGTGAGCTTATAATGCGGAAGTTGAGTCCCTTCAGTCCCTTTTCGTGGGGTCGTATCCCCTCTGACCTGCGGTGATGACCAGGGACTCAACGCAGGGACCGAAGAGGGACCAAGTCCCTGCGCGGGGCGGGCGACGGTAATCGTGCAGTGCCCCCTCCCCCGTTTCCCACAGCGAGTCGTCGCTCCCCTGTGAGGCCGGAGAGGGTCCTAGAACCCCTCAGGGGCCGTTCTGTGGCCCTCTGGGCCTCCTCCTGGCCATTTACCCCATGGGGGCGCTTGGGGGCGTCAGGAGGGCTTGTGAGGGCTCTGCCGGGAAGTGGCGGATTGCGCATGGCAGGAGATGCCCCGACAGCGGCCGGGAATCGACGATGTCCCCCGACCCCTATC (double strand) [sgcB1 upstream region (496 bp)]”, the binding result (13.5 pmol protein) is given as “no binding”. On to “GCCCACGCCCTCTGATCGGCCCTCGGCAGGTGCCCGAAGATCTGATCGGCAAGTACGGAGACCGGCAGGTGCGCGTGCCTCACGTCGTGTGCCGCCATGGCTCGTTTCCCTTCTCCTGGGCAACCGATCGAGCGCCGCGATATCGCAGCGAGCGATATGGTGTTCTACGGGGAGGGCGCTTCCGTCGGCCGGAGACCTGGCAGGGAACGTCGGCCCCATGGGGCTCGAAGATCGCCGACATCCCTCCCCCTCCCCCGCTTGACCAAGCCTTTTACCTGCTTGATCGATTCGTGGTTGTCACCTGGTCGCCATTGCGCCGAAACTTGAGTGCCGTCGGCCTGCCCCCCCGGGCAAGGCTCCGAACCCCTTCGGCATAAAACTCCGCACGCTGCTTCGCCATGCCGATCATCGTCGGAGAGGACATCGTAAATCAGGATCGGCCGGTACGTACACGGAGCATGGTCCCG (double strand) [sgcR3 upstream region (467 bp)]”, for which the binding result (13.5 pmol protein) is on record as “no binding”.
